This is one part of the list.
B1: il2ra_site2_2erj_normal_mot_HHH_b2_03519_000000210_0001_20_37_H_._HHH_b2_01928_0001_0000100003_0000001_0 (protein)
chain: SSSSSSDLEELREELEEIARKFDSEALEKMVEEAFRLAEEQNNPHLLEPLLKYAERLFSSSSSSS
B2: il2ra_site2_2erj_sap_23_mot_HHH_b2_00938_af2_000000099_0001_43_55_H_._5511cb2176c827d1feb3066af2f534d5_0001_af2_0001_0000300014_0000001_0_0001 (protein)
chain: DEEEIRKLLEELLGNPELVEEALRVIQKLAEFSKAPPEYILRYFRRQVERLGNPEAVIEFLEEAG
B3: il2ra_site1_3nfp_normal_mot_16934e337390fad51c35c10e6cd388ee_0001_1_000000171_0001_52_65_H_._HHH_b1_03835_0001_0000400014_0000001_0_af2pred_0001_af2pred (protein)
chain: SSSSDRNREFLRLAKEAAEAAKEGDPEEVEKLLERLREIAEEANSPIAKLYVERLERSIKSSSSS
B4: il2ra_site2_2erj_sap_15_mot_HHH_b2_07568_000000046_0001_18_34_H_._HHH_b2_04504_af2_0001_0000100001_0000001_0_0001 (protein)
chain: SSSSSEELRRLYELAVRILHLLARGDEEEVEELLQELEELARRLQSENAEEVVEAVKRTISSSSS
B5: il2ra_site2_3nfp_sap_13_mot_HHH_b2_01155_000000159_0001_38_52_H_._HHH_b1_01485_0001_0000400030_0000001_1_0001 (protein)
chain: DEVSEVIYELFEEGDPELAALLFWVRALVLEKDDPELEEELEKLIELAKRDPEEAKELAERLARK
B6: il2ra_site2_3nfp_sap_17_mot_HHH_b2_06150_000000230_0001_39_53_H_._HHH_b1_00061_0001_0000300020_0000001_0_0001 (protein)
chain: SSSSSHAEEYLRAALALLEEALEEGDEEFFRKLARLIEASAEQARDEEVVEEVRRLLEEFDSSSS
B7: il2ra_site2_2erj_sap_19_mot_0c4a4c8772ac5c82cb0652bfb64fb1f0_0001_af2_000000188_0001_37_51_H_._HHH_b2_03323_0001_0000800061_0000001_0_0001 (protein)
chain: SSSSDWLHRLYELAVEILRLIAEGDPEEARRLLEELEELAEERDSPAAEKIVERLEKDIESSSSS
B8: il2ra_site2_3nfp_sap_17_mot_HHH_b1_07288_000000026_0001_20_36_H_._HHH_b2_07203_0001_0000400030_0000001_1_0001 (protein)
chain: SSSSSSKAEEYVRAALELLRRIKDEELFEKHFEVIRLAIESNGDEELRELLEEIREEYRSSSSSS
B9: il2ra_site1_1z92_sap_15_mot_01209686ea234b34325f918445e6eade_0001_af2_000000144_0001_18_33_H_._418b0f4789b0b78872a3c6dbebafb2a7_0001_af2_0001_0000100003_0000001 … (protein)
chain: DEELEQLVEEARKYLPPELQRFLEELLEYLKKTGNPAYEFLIRQIVRKAKLDPEAAKKLVERMKR
B10: il2ra_site2_3nfp_normal_mot_HHH_b2_05605_000000133_0001_1_20_H_._HHH_b1_03122_0001_0000200006_0000001_0 (protein)
chain: SSSSDEEHERLWELSRRAFRLLEEGNPEEAEEVLEEARELAERNDSRVILRSIEELLKDLNSSSS
B11: il2ra_site1_2b5i_sap_6_mot_HHH_b1_01495_af2_000000272_0001_42_56_H_._HHH_b2_04607_0001_0000300012_0000001_0_0001_af2pred_0001_af2pred (protein)
chain: SSSTERELTRIAAEIVDELAEEFGLDTEQYNLLLRLAVKLVARGVSPEEIEEELEKLAKELSSSS
B12: il2ra_site1_2b5i_normal_mot_HHH_b2_04910_000000118_0001_1_19_H_._HHH_b1_00058_af2_0001_0000400010_0000001_0 (protein)
chain: SSSSSETEEAAKLFREADELDRNGNPEEAEEVLRKAEEIAEEAGNRLLLRMIEFALEAIESSSSS
B13: il2ra_site1_1z92_normal_mot_934a834d9b8b770824478def2ff2f329_0001_af2_000000088_0001_15_30_H_._HHH_b2_03791_af2_0001_0000400037_0000001_0_af2pred_0001_af2pred_1 (protein)
chain: SSSSSEAEEEARRIVEELVEEFGLSERLKRFLERLAEEALELGVDPEDIEKDLRHAAEHFSSSSS
B14: il2ra_site1_3nfp_normal_mot_eb5a5eebac1e5153f932cc6c3f4b2787_0001_af2_000000065_0001_18_33_H_._31bff7180b20e3ed47766ceefd9934be_0001_af2_0001_0000300036_0000001 … (protein)
chain: DEEKELAERIKEAVEKNDPELLEEVVRELLKKLGNPAEAARLFKELLKKAGLSPEEIFLALRLVA
B15: il2ra_site2_2erj_normal_mot_HHH_b1_02968_000000142_0001_22_39_H_._HHH_b1_04378_0001_0000300019_0000001_0 (protein)
chain: SSSSDESRRLVERLEEEFEELLRRGDLEELYKLAQEITHLAWKYNDPELQRIARELLERSSSSSS
B16: il2ra_site2_2erj_sap_24_mot_HHH_b2_01204_af2_000000056_0001_19_34_H_._HHH_b1_03604_0001_0000300013_0000001_0_0001_af2pred_0001_1_af2pred_swapped (protein)
chain: SSSSSSSDEEEVERLLEEAKRIRNLKEALEVLQEATEIADKNNNEELLHLITKVLRELSSSSSSS
B17: il2ra_site2_2erj_sap_28_mot_HHH_b1_08290_000000297_0001_19_37_H_._HEEHE_0761_0001_0000500016_0000001_0_0001_af2pred_0001_1_af2pred_swapped (protein)
chain: SSSSSSEEEIRRRVEELLEEAQHIPDLREAMEVLQEAARLADELGDPELLKEVKKVIRKESSSSS
B18: il2ra_site2_2erj_sap_22_mot_0c4a4c8772ac5c82cb0652bfb64fb1f0_0001_af2_000000188_0001_37_51_H_._1519a93453f8284439613b2157c22c9c_0001_0001_0000800043_0000001_0_0 … (protein)
chain: SSSSSDWLHRLYELAEEIIKALHEGDPEAVRELLEELEKLAEEAQSDVAKEIIERVERELSSSSS
B19: il2ra_site1_2b5i_normal_mot_HHH_b1_03896_000000019_0001_1_17_H_._ems_3hC_1310_0001_0000100013_0000001_0_af2pred_dldesign_0_af2pred (protein)
chain: AEDRALLERLEAAHKRAGAANDDELEAALEDAARALERTRRTRDAAARAAARAAAEAVIARALES
B20: il2ra_site1_1z92_sap_8_mot_a31c9f16200a66e5ad31ddff700483a3_0001_1_000000069_0001_19_32_H_._HHH_b1_03395_0001_0000300021_0000001_0_0001_af2pred_0001_af2pred_1 (protein)
chain: PEELAEEARELLENGNPEEARKVLEKLAKELGTEEAFKLDLERAERFTGNPEVALKALIAALARH
B21: il2ra_site2_2erj_sap_19_mot_HHH_b2_02646_000000001_0001_40_53_H_._HHH_b2_01480_0001_0000200016_0000001_0_0001 (protein)
chain: SSSSDELRRLFKLASELMELVTRGDEERFREVAEEVEELVEKLNSENAREILEWLERQIKSSSSS
B22: il2ra_site1_1z92_normal_mot_818a9d7520499bc24e5218c3ec3bba43_0001_000000166_0001_34_49_H_._66959ead3e6c57cb3ef8243f3eb758e0_0001_1_af2_0001_0000300024_0000001_0 … (protein)
chain: SASEEDLREAVEKNDEELLEEFIEFLLKTAGDPKFVEAFLRLLVRRLGLPPEVLEKLRELLEELT
B23: il2ra_site1_2b5i_normal_mot_HHH_b1_02015_af2_000000003_0001_1_19_H_._HHH_b2_05139_af2_0001_0000500042_0000001_0_af2pred_dldesign_0_af2pred (protein)
chain: SSSSDEVYDKIDELYKKALELKRAGKKEEAKKLLEEALELAKAANDEKAVAELEKLLELISSSSS
B24: il2ra_site1_2b5i_sap_16_mot_e0aa41e34d15cf2e554e57505dcbb35d_0001_af2_000000009_0001_53_65_H_._HEEHE_2612_0001_0000300030_0000001_0_0001_af2pred_0001_af2pred (protein)
chain: SSSSDEDEEVTELFREASELYRRGNPEEAEKLLERAAELAEKLGDELVLEDIRRFLELIKSSSSS

biological target: il2ra, P01589; experiment: yeast display titration

Apparent Kd, inactive:
B1 no binding seen, B2 no binding seen, B3 no binding seen, B4 no binding seen, B5 no binding seen, B6 no binding seen, B7 no binding seen, B8 no binding seen, B9 no binding seen, B10 no binding seen, B11 no binding seen, B12 no binding seen, B13 no binding seen, B14 no binding seen, B15 no binding seen, B16 no binding seen, B17 no binding seen, B18 no binding seen, B19 no binding seen, B20 no binding seen, B21 no binding seen, B22 no binding seen, B23 no binding seen, B24 no binding seen

From article PMC10163288
